The test system of this test is RS4;11 leukaemia tumour line. As to the kind of experiment: In vitro cytotoxicity (Microculture Tetrazolium Assay, 48 hours). Format: cell-based. To be noted: Homo sapiens, RS4-11, 48 h, read-out: IC50 (nM) MTT RS4. The protocol: The cytotoxicity studies were carried out on the RS4;11 leukaemia tumour line.
The cells are distributed onto microplates and exposed to the test compounds for 48 hours.

Structures can show the parent of a compound that is named as a salt.

Consider `O=C(c1cc(-c2cc3c(cc2C(=O)N2Cc4ccccc4C[C@H]2CN2CCOCC2)OCO3)n2ccncc12)N(c1ccc(O)cc1)c1cccc(F)c1` [Example 121, N-(3-Fluorophenyl)-N-(4-hydroxyphenyl)-6-(6-{[(3S)-3-(morpholin-4-ylmethyl)-3,4-dihydroisoquinolin-2(1H)-yl]carbonyl}-1,3-benzodioxol-5-yl)pyrrolo-[1,2-a]pyrazine-8-carboxamide hydrochloride], for which the IC50 came to 445 nM.
